These are yes or no findings as the source states them, for the method shown. Binding seen in cells or lysates may run through a third protein. Some results given as binding are weak or reduced against the parent protein; the word gives no strength.

The chains behind the UniProt entries cited, without tags or fusion partners.
UniProt O60238: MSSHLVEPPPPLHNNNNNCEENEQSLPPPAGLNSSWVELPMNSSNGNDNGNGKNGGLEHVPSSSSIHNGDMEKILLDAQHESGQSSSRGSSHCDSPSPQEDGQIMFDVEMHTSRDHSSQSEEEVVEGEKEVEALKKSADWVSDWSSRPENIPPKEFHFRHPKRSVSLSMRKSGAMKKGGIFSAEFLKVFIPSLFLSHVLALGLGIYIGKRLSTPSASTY

The values below come from article PMC12071194.

This test concerns the target mCherry-NIX (WT) (UniProt O60238). Nature of the test: co-IP; RFP-trap magnetic agarose on lysates (0.5% triton X-100 buffer) of B/N DKO HeLa cells expressing mCherry-BNIP3 or mCherry-NIX; cells cultured with 1 mM DFP for 12 h, then 12 h more with 100 nM bafilomycin A1 and DFP; immunoblot.

B1: WIPI2 (protein, UniProt Q9Y4P8 1-454)
chain: MNLASQSGEAGAGQLLFANFNQDNTEVKGASRAAGLGRRAVVWSLAVGSKSGYKFFSLSSVDKLEQIYECTDTEDVCIVERLFSSSLVAIVSLKAPRKLKVCHFKKGTEICNYSYSNTILAVKLNRQRLIVCLEESLYIHNIRDMKVLHTIRETPPNPAGLCALSINNDNCYLAYPGSATIGEVQVFDTINLRAANMIPAHDSPLAALAFDASGTKLATASEKGTVIRVFSIPEGQKLFEFRRGVKRCVSICSLAFSMDGMFLSASSNTETVHIFKLETVKEKPPEEPTTWTGYFGKVLMASTSYLPSQVTEMFNQGRAFATVRLPFCGHKNICSLATIQKIPRLLVGAADGYLYMYNLDPQEGGECALMKQHRLDGSLETTNEILDSASHDCPLVTQTYGAAAGKGTYVPSSPTRLAYTDDLGAVGGACLEDEASALRLDEDSEHPPMILRTD
For B1, the binding entry was “binds”.
